Data taken from paper PMC8056045.
These are yes or no findings as the source states them, for the method shown.

Chains of the proteins cited; added tags and fusions are not shown.
UniProt O22130: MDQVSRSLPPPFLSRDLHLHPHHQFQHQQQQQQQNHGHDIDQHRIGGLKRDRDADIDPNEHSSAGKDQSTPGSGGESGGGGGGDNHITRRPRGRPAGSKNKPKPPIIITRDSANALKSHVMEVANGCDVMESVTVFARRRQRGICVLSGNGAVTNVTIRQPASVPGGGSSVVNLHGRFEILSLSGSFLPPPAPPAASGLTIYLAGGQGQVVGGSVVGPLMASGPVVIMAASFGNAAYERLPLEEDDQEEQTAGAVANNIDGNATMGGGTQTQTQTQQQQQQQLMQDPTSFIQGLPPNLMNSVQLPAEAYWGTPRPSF
UniProt Q9S7C9: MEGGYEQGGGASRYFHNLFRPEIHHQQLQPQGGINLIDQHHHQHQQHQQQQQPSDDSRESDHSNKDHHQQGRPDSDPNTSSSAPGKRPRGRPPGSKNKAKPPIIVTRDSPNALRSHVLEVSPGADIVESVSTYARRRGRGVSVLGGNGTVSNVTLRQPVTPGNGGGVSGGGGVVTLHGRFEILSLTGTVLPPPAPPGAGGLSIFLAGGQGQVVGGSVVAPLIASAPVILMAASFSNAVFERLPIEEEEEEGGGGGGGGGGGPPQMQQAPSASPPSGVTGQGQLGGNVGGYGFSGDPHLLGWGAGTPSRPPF
UniProt Q9C9K7: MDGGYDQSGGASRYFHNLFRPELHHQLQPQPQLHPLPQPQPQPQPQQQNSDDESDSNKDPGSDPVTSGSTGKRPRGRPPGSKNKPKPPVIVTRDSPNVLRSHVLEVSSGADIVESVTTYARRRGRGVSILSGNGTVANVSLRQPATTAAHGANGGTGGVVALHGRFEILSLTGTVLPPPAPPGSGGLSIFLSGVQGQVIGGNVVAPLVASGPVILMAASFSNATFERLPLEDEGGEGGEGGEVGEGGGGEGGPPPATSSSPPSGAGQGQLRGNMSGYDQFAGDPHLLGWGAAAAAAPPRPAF
UniProt O23620: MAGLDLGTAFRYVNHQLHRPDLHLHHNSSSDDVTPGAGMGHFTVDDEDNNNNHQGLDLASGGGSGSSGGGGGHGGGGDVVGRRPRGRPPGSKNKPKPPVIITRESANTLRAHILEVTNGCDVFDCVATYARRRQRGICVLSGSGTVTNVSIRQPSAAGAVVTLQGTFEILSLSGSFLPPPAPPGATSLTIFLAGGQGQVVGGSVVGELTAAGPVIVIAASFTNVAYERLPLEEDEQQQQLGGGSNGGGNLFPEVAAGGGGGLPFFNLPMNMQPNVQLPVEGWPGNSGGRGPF
UniProt Q9LTA2: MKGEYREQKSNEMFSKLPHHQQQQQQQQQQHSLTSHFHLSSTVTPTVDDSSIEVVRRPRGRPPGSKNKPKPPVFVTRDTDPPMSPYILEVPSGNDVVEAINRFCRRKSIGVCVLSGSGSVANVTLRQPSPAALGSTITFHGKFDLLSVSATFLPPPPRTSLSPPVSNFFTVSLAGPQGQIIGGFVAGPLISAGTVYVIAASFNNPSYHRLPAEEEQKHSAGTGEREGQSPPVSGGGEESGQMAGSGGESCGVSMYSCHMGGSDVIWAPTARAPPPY

Each substance was assayed against T1, plant and prokaryotes conserved (PPC) domain of AHL4 (Arabidopsis thaliana) (UniProt Q9FHM5) (assay: two-hybrid; ProQuest two-hybrid system (Invitrogen) in yeast; bait in pDEST32 (GAL4 DNA-binding domain), prey in pDEST22 (GAL4 activation domain); 3-AT assay: growth on SD3- (Leu-/Trp-/His-) media with 0, 10, 20 and 40 mM 3-AT, 30°C, 2 days; criterion of interaction: a colony on SD3- media with 20 mM 3-AT).
T1 sequence: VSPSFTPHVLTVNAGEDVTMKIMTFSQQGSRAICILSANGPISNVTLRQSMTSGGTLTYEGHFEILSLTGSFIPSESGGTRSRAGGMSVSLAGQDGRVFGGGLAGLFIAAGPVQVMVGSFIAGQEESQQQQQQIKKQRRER

binding | Substance
no binding | AT-HOOK MOTIF NUCLEAR LOCALIZED PROTEIN 22 (AHL22) (from UniProt O22130 1-317)
no binding | AT-HOOK MOTIF NUCLEAR LOCALIZED PROTEIN 27 (AHL27) (from UniProt Q9S7C9 1-311)
no binding | AT-HOOK MOTIF NUCLEAR LOCALIZED PROTEIN 29 (AHL29) (from UniProt Q9C9K7 1-302)
no binding | AT-HOOK MOTIF NUCLEAR LOCALIZED PROTEIN 23 (AHL23) (from UniProt O23620 1-292)
no binding | AT-HOOK MOTIF NUCLEAR LOCALIZED PROTEIN 17 (AHL17) (from UniProt Q9LTA2 1-276)
